Four substances from paper PMC9481463 can be followed below.

Amino acid sequences for entries named in this document (tags omitted).
UniProt P55884: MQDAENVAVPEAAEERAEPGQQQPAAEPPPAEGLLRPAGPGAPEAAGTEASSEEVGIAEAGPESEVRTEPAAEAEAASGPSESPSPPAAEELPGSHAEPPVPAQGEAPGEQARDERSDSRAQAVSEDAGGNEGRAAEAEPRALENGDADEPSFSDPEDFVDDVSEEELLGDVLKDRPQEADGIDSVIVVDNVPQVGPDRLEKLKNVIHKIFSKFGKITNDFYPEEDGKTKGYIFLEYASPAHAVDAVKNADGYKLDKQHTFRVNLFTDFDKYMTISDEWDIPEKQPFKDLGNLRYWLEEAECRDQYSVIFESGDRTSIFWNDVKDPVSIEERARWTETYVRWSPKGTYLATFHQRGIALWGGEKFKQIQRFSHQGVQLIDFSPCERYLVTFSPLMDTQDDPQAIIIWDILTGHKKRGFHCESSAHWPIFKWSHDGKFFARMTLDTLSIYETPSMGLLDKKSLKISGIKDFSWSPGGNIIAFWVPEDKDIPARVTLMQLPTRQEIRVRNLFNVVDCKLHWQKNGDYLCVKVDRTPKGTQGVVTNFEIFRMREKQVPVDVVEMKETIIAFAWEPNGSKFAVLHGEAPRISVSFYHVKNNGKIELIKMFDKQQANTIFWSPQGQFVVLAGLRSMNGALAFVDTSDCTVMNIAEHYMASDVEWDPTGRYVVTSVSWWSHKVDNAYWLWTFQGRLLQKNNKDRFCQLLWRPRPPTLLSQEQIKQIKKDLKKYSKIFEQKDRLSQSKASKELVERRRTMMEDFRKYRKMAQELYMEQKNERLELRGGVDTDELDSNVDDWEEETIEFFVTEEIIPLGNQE
UniProt O00303: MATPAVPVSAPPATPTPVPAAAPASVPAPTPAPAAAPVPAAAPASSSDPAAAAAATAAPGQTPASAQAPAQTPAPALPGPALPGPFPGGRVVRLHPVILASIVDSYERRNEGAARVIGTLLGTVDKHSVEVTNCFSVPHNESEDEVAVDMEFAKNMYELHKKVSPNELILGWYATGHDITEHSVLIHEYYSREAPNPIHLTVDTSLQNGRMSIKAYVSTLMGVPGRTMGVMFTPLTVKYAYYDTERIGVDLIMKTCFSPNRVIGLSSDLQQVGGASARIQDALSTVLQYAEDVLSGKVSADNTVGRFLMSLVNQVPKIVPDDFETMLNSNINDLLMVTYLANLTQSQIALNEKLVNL
UniProt P11940: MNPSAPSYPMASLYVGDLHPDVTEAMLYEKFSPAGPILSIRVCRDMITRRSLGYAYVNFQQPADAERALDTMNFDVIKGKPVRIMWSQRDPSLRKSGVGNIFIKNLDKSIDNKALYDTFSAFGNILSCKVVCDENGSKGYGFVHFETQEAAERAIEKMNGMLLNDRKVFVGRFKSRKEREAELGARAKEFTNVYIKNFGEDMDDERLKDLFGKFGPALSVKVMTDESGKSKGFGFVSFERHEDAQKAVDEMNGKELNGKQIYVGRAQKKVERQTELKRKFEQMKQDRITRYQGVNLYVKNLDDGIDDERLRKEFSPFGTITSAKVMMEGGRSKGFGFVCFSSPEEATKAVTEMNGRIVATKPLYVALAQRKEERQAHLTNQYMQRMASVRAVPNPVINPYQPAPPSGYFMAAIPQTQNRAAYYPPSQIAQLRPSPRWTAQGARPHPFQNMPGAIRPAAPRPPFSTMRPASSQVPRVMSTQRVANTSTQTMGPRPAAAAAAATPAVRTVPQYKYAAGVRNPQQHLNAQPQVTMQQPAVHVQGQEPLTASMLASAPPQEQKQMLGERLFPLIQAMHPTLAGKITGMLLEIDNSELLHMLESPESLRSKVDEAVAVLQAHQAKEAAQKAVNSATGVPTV

Assay [1] deals with T1, purine-rich element binding protein alpha (PURα) (human (endogenous in KYSE510)) (UniProt Q00577).
T1 sequence: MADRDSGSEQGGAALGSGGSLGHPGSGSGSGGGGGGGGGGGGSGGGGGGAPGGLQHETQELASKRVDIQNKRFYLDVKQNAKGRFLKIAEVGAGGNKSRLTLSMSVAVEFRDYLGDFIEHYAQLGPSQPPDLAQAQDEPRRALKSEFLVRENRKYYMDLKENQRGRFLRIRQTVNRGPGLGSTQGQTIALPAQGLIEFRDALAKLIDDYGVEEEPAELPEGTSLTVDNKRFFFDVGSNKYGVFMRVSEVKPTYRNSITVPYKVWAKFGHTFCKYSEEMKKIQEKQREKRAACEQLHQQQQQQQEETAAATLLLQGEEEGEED
Put plainly: co-IP; endogenous proteins in KYSE510 cells, immunoprecipitation of PURα, blots of candidate proteins; with and without RNase.

The target in a further assay is T2, PURα-Flag (human) (UniProt Q00577).
T2 sequence: T1 sequence
Put plainly: co-IP; PURα-Flag and PABPC1-HA overexpressed in 293 cells; which one was precipitated is not stated.

No constants are given. Whether binding was seen depends on the method and setting. Binding seen in cells or lysates may run through a third protein. Some binding calls cover weakened binding; strength is not graded here. For some of these results: Sequences can lack the tags named with a protein.

Regarding EIF3B (from UniProt P55884 1-814), the binding entry in assay [1] is listed as “binds”.
In the case of EIF3F (from UniProt O00303 1-357), the binding result in assay [1] was “binds”.
On to PABPC1 (from UniProt P11940 1-636), for which the binding result in assay [1] was “binds”.
As to PABPC1-HA (from UniProt P11940 1-636), in the assay with PURα-Flag (human), the binding result is listed as “binds”.
